Results from patent US20080119400A1.
Results are given in words; binding and its absence hold for the method and conditions named. Some binding calls cover weakened binding; strength is not graded here.

Amino acid sequences for entries named in this document (tags omitted). A change or cut given only in a name is not applied to a line headed by its entry. Residues count along the entry.
UniProt P01024, residues 23-1663: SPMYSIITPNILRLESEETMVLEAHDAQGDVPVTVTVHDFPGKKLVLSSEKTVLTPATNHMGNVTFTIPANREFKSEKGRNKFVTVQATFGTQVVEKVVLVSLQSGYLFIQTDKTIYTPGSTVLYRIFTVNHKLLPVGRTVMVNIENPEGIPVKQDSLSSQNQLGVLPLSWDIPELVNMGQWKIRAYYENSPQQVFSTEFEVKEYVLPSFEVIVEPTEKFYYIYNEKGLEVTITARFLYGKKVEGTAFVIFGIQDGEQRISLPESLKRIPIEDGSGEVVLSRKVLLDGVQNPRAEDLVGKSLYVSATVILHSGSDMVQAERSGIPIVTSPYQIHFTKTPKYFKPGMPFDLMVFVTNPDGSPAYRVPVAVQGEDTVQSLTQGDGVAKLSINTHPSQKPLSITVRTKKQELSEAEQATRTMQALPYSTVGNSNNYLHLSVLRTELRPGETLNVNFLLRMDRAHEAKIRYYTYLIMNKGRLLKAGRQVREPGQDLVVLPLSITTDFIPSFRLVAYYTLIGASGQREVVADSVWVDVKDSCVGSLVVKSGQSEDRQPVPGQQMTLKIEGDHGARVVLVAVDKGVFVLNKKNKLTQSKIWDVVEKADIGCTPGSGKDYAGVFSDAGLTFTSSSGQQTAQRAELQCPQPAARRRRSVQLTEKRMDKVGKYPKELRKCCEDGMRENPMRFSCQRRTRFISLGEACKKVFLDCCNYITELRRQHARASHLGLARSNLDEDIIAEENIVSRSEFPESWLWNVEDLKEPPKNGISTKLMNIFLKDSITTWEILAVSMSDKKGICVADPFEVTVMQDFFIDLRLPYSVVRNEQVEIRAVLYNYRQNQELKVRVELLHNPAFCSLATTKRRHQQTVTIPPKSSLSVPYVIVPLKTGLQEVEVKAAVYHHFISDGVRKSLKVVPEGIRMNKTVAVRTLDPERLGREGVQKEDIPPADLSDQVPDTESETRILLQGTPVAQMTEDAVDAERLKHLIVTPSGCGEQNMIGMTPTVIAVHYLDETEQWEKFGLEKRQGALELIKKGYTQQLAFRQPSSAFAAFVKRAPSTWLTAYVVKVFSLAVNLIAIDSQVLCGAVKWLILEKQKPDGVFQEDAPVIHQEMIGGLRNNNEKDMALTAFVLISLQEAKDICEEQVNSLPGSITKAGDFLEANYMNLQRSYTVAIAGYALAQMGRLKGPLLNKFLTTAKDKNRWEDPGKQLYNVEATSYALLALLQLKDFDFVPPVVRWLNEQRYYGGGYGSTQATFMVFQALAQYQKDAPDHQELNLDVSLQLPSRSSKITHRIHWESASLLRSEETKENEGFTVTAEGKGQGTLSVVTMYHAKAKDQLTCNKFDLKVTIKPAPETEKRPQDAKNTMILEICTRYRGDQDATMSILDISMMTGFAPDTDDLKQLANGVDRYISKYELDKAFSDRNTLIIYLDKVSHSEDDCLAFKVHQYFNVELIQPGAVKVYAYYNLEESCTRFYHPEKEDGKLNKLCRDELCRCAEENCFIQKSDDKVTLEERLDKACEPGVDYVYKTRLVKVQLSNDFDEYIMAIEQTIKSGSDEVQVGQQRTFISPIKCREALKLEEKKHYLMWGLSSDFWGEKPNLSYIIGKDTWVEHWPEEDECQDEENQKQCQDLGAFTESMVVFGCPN
UniProt P17927: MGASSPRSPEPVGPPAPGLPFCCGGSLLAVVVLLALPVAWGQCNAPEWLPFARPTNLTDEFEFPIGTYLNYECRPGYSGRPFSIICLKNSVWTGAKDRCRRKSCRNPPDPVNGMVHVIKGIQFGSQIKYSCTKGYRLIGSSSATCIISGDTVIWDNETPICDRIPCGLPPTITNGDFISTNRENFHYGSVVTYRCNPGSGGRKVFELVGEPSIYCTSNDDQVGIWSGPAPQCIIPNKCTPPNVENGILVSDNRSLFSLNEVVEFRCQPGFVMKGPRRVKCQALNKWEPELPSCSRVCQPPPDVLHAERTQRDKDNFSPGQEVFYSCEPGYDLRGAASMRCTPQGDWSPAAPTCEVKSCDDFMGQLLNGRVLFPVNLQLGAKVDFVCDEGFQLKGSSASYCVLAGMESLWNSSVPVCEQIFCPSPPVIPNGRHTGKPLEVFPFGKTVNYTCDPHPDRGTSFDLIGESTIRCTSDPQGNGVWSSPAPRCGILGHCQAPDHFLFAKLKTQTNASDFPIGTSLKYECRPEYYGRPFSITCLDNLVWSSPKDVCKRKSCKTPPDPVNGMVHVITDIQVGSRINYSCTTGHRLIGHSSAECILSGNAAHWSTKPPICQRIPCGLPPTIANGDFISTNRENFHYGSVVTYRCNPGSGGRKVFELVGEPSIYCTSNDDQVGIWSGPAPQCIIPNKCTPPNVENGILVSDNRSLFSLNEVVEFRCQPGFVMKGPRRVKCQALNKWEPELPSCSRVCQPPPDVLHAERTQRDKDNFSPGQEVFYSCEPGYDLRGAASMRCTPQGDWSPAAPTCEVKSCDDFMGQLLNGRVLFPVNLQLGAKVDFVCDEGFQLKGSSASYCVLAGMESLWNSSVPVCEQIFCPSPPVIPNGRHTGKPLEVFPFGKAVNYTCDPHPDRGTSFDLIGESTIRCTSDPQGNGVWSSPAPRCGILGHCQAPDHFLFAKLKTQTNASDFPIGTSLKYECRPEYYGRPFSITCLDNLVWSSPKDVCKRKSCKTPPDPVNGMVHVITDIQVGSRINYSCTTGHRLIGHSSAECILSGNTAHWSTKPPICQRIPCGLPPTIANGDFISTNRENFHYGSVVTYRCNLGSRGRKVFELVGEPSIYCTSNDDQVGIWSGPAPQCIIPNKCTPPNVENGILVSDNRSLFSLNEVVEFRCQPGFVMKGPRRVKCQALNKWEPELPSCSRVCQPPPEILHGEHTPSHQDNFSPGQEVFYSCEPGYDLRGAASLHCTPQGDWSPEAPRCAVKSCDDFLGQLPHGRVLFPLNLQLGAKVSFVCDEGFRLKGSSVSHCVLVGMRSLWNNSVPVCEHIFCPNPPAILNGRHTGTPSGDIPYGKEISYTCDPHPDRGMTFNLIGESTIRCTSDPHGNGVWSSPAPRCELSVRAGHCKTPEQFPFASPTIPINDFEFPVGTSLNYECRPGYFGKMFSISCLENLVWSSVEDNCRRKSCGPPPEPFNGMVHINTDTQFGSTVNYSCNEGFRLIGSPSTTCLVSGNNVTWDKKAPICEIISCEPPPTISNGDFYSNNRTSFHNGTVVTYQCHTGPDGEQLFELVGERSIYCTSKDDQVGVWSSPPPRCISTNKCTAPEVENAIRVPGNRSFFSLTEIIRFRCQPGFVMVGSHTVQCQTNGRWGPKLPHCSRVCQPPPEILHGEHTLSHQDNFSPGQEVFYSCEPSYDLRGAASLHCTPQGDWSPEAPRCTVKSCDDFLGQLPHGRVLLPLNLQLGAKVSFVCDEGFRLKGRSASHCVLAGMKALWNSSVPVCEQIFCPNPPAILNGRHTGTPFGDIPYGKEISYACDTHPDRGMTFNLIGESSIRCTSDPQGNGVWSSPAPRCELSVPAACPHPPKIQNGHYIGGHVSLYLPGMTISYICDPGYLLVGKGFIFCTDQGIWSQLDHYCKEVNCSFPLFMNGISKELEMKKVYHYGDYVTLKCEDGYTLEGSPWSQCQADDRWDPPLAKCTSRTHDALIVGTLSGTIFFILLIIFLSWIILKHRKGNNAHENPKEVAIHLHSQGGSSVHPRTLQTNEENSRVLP

Target: iC3 (C3 containing a broken thioester bond analogous in reactivity and function to C3b) (UniProt P01024)
Test: iC3-Sepharose, ELISA of eluate

Substance | binding
CR1-4 (8, 9) mutant 2r (from UniProt P17927 492-1034) (receptor) | binds
CR1-4 (8, 9) mutant 6r (from UniProt P17927 492-1034) (receptor) | binds
CR1-4 (8, 9) mutant 7r (from UniProt P17927 492-1034) (receptor) | binds
CR1-4 (8, 9) mutant 8r (from UniProt P17927 492-1034) (receptor) | binds
CR1-4 (8, 9) mutant 9r (from UniProt P17927 492-1034) (receptor) | binds
CR1-4 (8, 9) mutant 10, 11r (from UniProt P17927 492-1034) (receptor) | binds
CR1-4 (8, 9) mutant 10ar (from UniProt P17927 492-1034) (receptor) | binds
CR1-4 (8, 9) mutant 10dr (from UniProt P17927 492-1034) (receptor) | binds
CR1-4 (8, 9) mutant 10r (from UniProt P17927 492-1034) (receptor) | binds
CR1-4 (8, 9) mutant 11ar (from UniProt P17927 492-1034) (receptor) | binds
CR1-4 (8, 9) mutant 11br (from UniProt P17927 492-1034) (receptor) | binds
CR1-4 (8, 9) mutant 11dr (from UniProt P17927 492-1034) (receptor) | binds
CR1-4 (8, 9) mutant 11r (from UniProt P17927 492-1034) (receptor) | binds
CR1-4 (8, 9) mutant 14r (from UniProt P17927 51-1034) (receptor) | binds
CR1-4 (8, 9) mutant 15r (from UniProt P17927 492-1034) (receptor) | binds
CR1-4 Stop 7 (from UniProt P17927 42-940) (receptor) | binds
CR1-4 mutant 1 (from UniProt P17927 42-1034) (receptor) | binds
CR1-4 mutant 1b, 6b (from UniProt P17927 42-1034) (receptor) | binds

Substance | binding
CR1-4 mutant 2 (from UniProt P17927 42-1034) (receptor) | binds
CR1-4 mutant 3 (from UniProt P17927 42-1034) (receptor) | binds
CR1-4 mutant 4 (from UniProt P17927 42-1034) (receptor) | binds
CR1-4 mutant 5 (from UniProt P17927 42-1034) (receptor) | binds
CR1-4 mutant 6 (from UniProt P17927 42-1034) (receptor) | binds
CR1-4 mutant 6b (from UniProt P17927 42-1034) (receptor) | binds
CR1-4 mutant 7 (from UniProt P17927 42-1034) (receptor) | binds
CR1-4 mutant 8a (from UniProt P17927 42-1034) (receptor) | binds
CR1-4 mutant 9 (from UniProt P17927 42-1034) (receptor) | binds
CR1-4 mutant 10 (from UniProt P17927 42-1034) (receptor) | binds
CR1-4 mutant 10, 11 (from UniProt P17927 42-1034) (receptor) | binds
CR1-4 mutant 11 (from UniProt P17927 42-1034) (receptor) | binds
CR1-4 mutant 11c (from UniProt P17927 42-1034) (receptor) | binds
CR1-4 mutant 11d (from UniProt P17927 42-1034) (receptor) | binds
CR1-4 mutant 11ΔSCR1 (from UniProt P17927 102-1034) (receptor) | binds
CR1-4 mutant 13 (from UniProt P17927 42-1034) (receptor) | binds
CR1-4 mutant 14 (from UniProt P17927 42-1034) (receptor) | binds
CR1-4 mutant 27, 29: Y . . . N→ S . . . K (from UniProt P17927 42-1034) (receptor) | binds

The remaining lines, values ahead:

binding | Substance
binds | CR1-4 (8, 9) (from UniProt P17927 492-1034) (receptor)
binds | CR1-4 (8, 9) mutant 1ar, 5r, 8br (from UniProt P17927 492-1034) (receptor)
binds | CR1-4 (8, 9) mutant 1br (from UniProt P17927 492-1034) (receptor)
binds | CR1-4 (8, 9) mutant 3r (from UniProt P17927 492-1034) (receptor)
binds | CR1-4 (8, 9) mutant 10br (from UniProt P17927 492-1034) (receptor)
binds | CR1-4 (8, 9) mutant 10cr (from UniProt P17927 492-1034) (receptor)
binds | CR1-4 (8, 9) mutant 11cr (from UniProt P17927 492-1034) (receptor)
binds | CR1-4 (8, 9) mutant 11er (from UniProt P17927 492-1034) (receptor)
binds | CR1-4 (8, 9) mutant 12r (from UniProt P17927 495-1034) (receptor)
binds | CR1-4 (8, 9) mutant 13r (from UniProt P17927 45-1034) (receptor)
binds | CR1-4 (8, 9) stop 7 (from UniProt P17927 492-940) (receptor)
binds | CR1-4 mutant 1a (from UniProt P17927 42-1034) (receptor)
binds | CR1-4 mutant 1b (from UniProt P17927 42-1034) (receptor)
binds | CR1-4 mutant 8 (from UniProt P17927 42-1034) (receptor)
binds | CR1-4 mutant 8b (from UniProt P17927 42-1034) (receptor)
binds | CR1-4 mutant 11a (from UniProt P17927 42-1034) (receptor)
binds | CR1-4 mutant 11b (from UniProt P17927 42-1034) (receptor)
binds | CR1-4 mutant 11c, d (from UniProt P17927 42-1034) (receptor)
binds | CR1-4 mutant 11e (from UniProt P17927 42-1034) (receptor)
binds | CR1-4 mutant 12 (from UniProt P17927 45-1034) (receptor)
